{
  "source": "patent US20190201541A1",
  "about": "“ANTI-CD22 ANTIBODY-MAYTANSINE CONJUGATES, COMBINATIONS, AND METHODS OF USE THEREOF” (Triphase Accelerator U.S. Corporation, priority 2017, published 2019)",
  "assay": "Cynomolgus and human tissue cross-reactivity studies",
  "parameters": "species or system human and cynomolgus monkey",
  "conditions": "human and cynomolgus tissue microarrays",
  "data": [
    {"smiles": "COc1cc2cc(c1Cl)N(C)C(=O)C[C@H](OC(=O)[C@@H](C)N(C)C(=O)CCC(=O)N(CCOCCOCCC(=O)O)C1CCN(C(=O)CCn3c4c(c5ccccc53)C(C)N(C)N(C)C4)CC1)[C@]1(C)OC1[C@H](C)[C@@H]1CC(O)(NC(=O)O1)[C@H](OC)/C=C/C=C(\\C)C2", "note": "(stereo partly drawn) [anti-CD22 ADC]", "values": [
      {"measurement": "tissue cross-reactivity profile", "result": "B cell-specific reactivity"}
    ]}
  ]
}
